These are yes or no findings as the source states them, for the method shown. Binding seen in cells or lysates may run through a third protein. Some results given as binding are weak or reduced against the parent protein; the word gives no strength.
T1: vascular endothelial-cadherin (human (endogenous in hBMVECs)) (UniProt P33151)
T1 sequence: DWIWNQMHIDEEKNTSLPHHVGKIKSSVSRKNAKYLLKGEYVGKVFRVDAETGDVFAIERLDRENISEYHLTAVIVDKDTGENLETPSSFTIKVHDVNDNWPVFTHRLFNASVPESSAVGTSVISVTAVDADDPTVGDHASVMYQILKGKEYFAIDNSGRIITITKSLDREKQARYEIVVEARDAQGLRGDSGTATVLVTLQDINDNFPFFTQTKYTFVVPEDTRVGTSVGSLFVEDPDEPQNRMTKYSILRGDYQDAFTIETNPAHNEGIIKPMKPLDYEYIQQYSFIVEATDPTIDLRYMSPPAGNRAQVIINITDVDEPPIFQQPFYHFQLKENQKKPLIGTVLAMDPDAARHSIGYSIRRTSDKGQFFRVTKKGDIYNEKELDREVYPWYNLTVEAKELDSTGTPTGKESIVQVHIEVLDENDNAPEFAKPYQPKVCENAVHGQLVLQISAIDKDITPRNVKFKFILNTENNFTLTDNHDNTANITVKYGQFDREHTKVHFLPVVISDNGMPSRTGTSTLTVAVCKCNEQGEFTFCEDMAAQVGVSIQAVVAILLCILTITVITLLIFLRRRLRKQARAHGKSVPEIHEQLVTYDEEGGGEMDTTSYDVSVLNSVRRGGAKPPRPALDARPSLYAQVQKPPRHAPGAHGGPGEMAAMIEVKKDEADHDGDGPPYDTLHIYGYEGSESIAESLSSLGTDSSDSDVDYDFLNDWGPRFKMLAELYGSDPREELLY

By UniProt entry, the sequences of proteins in these tests, tags left out. Residues count along the entry.
UniProt P23467, residues 23-1997: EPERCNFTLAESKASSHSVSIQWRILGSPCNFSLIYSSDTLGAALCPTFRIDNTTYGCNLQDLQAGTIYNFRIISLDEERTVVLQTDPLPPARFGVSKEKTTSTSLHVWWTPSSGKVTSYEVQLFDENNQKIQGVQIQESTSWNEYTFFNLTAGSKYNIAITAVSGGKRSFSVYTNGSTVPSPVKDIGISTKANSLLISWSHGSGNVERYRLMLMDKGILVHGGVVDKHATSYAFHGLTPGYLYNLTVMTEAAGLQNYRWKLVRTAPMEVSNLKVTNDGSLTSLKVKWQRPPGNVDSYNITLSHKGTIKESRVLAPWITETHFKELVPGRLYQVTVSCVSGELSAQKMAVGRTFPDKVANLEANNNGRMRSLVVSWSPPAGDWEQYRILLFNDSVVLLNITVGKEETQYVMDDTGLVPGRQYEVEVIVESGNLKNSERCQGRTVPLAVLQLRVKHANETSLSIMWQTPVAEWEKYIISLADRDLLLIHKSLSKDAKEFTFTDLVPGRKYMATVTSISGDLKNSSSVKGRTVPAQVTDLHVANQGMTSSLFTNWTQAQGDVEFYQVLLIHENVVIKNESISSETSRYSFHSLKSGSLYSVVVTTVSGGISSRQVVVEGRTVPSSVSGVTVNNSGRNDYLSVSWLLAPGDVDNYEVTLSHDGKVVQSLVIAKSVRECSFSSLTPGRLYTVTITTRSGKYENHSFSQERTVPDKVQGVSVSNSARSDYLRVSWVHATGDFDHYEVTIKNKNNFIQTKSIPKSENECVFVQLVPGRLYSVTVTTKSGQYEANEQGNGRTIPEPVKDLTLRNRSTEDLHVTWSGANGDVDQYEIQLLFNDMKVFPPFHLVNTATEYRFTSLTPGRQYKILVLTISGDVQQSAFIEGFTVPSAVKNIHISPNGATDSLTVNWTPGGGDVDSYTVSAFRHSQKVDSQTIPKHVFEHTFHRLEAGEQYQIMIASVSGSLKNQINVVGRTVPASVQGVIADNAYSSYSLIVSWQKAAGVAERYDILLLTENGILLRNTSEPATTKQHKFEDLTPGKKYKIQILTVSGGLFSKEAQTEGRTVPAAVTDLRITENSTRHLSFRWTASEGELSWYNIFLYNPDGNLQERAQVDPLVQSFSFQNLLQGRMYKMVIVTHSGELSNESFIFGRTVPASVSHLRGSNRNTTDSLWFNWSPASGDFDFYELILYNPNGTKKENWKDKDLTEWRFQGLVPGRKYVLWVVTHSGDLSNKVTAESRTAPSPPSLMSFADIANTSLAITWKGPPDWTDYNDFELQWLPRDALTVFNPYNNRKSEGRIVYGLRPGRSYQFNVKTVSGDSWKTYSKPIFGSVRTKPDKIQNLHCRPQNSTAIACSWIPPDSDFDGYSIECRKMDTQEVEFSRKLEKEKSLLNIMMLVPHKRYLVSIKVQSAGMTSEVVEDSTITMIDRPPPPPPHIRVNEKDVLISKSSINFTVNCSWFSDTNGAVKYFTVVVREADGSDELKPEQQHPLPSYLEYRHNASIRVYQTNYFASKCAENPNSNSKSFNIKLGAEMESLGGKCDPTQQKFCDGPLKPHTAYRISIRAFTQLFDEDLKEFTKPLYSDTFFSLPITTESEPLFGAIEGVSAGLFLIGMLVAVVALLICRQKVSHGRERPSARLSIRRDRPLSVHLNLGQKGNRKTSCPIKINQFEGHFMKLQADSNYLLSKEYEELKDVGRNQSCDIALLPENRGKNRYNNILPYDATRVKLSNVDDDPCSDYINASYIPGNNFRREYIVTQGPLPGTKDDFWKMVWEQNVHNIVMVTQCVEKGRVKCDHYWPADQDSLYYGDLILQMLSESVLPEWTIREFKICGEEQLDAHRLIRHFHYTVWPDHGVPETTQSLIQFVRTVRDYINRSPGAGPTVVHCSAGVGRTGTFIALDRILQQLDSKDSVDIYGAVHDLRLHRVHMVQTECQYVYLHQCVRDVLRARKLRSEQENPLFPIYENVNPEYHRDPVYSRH

T2: vascular endothelial-cadherin (human (endogenous in hBMVECs)), P33151
T2 chain: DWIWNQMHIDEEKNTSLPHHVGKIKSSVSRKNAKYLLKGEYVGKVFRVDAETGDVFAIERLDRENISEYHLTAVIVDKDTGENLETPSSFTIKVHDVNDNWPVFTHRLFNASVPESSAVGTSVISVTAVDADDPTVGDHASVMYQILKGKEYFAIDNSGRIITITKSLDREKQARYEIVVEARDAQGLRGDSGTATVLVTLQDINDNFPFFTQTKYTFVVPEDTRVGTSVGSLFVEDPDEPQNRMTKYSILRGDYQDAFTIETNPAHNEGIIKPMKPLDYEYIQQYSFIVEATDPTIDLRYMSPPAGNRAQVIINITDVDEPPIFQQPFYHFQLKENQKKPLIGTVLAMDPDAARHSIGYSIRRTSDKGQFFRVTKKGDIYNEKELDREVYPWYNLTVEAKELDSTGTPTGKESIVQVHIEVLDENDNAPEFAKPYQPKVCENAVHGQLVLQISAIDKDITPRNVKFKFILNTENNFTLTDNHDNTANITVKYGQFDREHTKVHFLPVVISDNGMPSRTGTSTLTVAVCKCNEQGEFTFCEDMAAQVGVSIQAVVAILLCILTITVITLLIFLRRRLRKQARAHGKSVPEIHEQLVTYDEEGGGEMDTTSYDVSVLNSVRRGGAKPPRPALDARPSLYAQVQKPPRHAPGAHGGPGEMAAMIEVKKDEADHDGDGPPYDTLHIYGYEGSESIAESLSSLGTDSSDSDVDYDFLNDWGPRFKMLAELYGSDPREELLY


Assays:
[1] = biological target: T1, vascular endothelial-cadherin (human (endogenous in hBMVECs)); assay: co-IP
[2] = biological target: T2, vascular endothelial-cadherin (human …); assay: co-IP; conditions: remark: other sources report otherwise

binding [1]	binding [2]	Molecule
binds		VE-PTP (from UniProt P23467 23-1997)
	binds	β-catenin, P35222 1-781 (protein) MATQADLMELDMAMEPDRKAAVSHWQQQSYLDSGIHSGATTTAPSLSGKGNPEEEDVDTSQVLYEWEQGFSQSFTQEQVADIDGQYAMTRAQRVRAAMFPETLDEGMQIPSTQFDAAHPTNVQRLAEPSQMLKHAVVNLINYQDDAELATRAIPELTKLLNDEDQVVVNKAAVMVHQLSKKEASRHAIMRSPQMVSAIVRTMQNTNDVETARCTAGTLHNLSHHREGLLAIFKSGGIPALVKMLGSPVDSVLFYAITTLHNLLLHQEGAKMAVRLAGGLQKMVALLNKTNVKFLAITTDCLQILAYGNQESKLIILASGGPQALVNIMRTYTYEKLLWTTSRVLKVLSVCSSNKPAIVEAGGMQALGLHLTDPSQRLVQNCLWTLRNLSDAATKQEGMEGLLGTLVQLLGSDDINVVTCAAGILSNLTCNNYKNKMMVCQVGGIEALVRTVLRAGDREDITEPAICALRHLTSRHQEAEMAQNAVRLHYGLPVVVKLLHPPSHWPLIKATVGLIRNLALCPANHAPLREQGAIPRLVQLLVRAHQDTQRRTSMGGTQQQFVEGVRMEEIVEGCTGALHILARDVHNRIVIRGLNTIPLFVQLLYSPIENIQRVAAGVLCELAQDKEAAEAIEAEGATAPLTELLHSRNEGVATYAAAVLFRMSEDKPQDYKKRLSVELTSSLFRTEPMAWNETADLGLDIGAQGEPLGYRQDDPSYRSFHSGGYGQDALGMDPMMEHEMGGHHPGADYPVDGLPDLGHAQDLMDGLPPGDSNQLAWFDTDL

Source: PMC4230799
